The data set can be described thus: general procedure: Boc solid-phase peptide synthesis; Boc Thr(OBzl) Pam resin; methoxybenzhydrylamine resin for C-terminal amides; HBTU (FastBoc single couplings); DEPBT for lactam analogs.

Plain letter strings leave the end groups untold.

The values below come from patent publication US8900593B2 (Indiana University Research and Technology Corporation, priority 2007, dated 2014).

For the substance Glucagon Cys^29 Mal-PEG-5K, the “final HPLC purity” value (conjugation step, 214 nm) is reported as “greater than 95%”.

For the substance Glucagon Cys^24 Mal-PEG-20K, the “final HPLC purity” value (conjugation step, analytical HPLC (Zorbax C8, 214 nm), MALDI mass spectral analysis) was “˜90%”.

For Glucagon Cys^17 Mal-PEG-5K, the “final HPLC purity” value (conjugation step, 214 nm) is recorded as “aprox. 90%”.

Consider HSQGTFTSDYSKYLDSRRAQDFVQWLMNTGPSSGAPPPS, for which the “final HPLC purity” value (whole synthesis, analytical HPLC (Zorbax C8, 214 nm), MALDI mass spectral analysis, scale of the general procedure 0.2 mmole) was “greater than 95%”.
